{
  "source": "patent US20080233151A1",
  "about": "“Use of non-antibacterial tetracycline analogs and formulations thereof for the treatment of bacterial exotoxins” (priority 2002, published 2008)",
  "origin": "cited, not measured here",
  "system": "exotoxins released by the bacteria",
  "settings": "cited from earlier work",
  "data": [
    {"smiles": "O=C(O)c1cn(C2CC2)c2cc(N3CCNCC3)c(F)cc2c1=O", "note": "[ciprofloxacin]", "values": [
      {"measurement": "effect on the exotoxins released by the bacteria", "value": "substantially no effect"}
    ]}
  ]
}
